Measured values as given in the supplement of paper PMC6411743.
± gives the standard deviation of the averaged measurements. This is a selection; strong and weak results do not stand in their true shares.

Chains of the proteins cited; added tags and fusions are not shown. Lines headed by an entry give the natural chain unless they say otherwise; changes in a name come on top.
UniProt O75208: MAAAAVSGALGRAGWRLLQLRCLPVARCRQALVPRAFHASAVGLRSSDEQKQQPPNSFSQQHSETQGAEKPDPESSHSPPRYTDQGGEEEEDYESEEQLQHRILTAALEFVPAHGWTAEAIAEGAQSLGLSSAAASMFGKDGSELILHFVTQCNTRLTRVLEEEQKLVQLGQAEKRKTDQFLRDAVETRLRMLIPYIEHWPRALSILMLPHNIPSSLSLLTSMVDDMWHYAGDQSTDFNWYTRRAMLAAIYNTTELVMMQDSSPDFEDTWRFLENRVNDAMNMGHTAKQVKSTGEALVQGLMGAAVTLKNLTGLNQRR
UniProt O95716: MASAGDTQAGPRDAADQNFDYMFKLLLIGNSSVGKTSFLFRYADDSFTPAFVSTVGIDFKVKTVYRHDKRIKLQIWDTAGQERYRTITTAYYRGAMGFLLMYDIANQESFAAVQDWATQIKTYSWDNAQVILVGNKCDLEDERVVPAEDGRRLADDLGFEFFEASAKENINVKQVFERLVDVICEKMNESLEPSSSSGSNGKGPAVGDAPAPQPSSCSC
UniProt O75340: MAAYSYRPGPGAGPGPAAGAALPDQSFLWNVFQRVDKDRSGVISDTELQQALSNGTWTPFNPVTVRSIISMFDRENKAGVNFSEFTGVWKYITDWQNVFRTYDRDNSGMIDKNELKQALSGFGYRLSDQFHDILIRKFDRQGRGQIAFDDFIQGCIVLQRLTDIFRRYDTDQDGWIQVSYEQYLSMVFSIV
UniProt O75843: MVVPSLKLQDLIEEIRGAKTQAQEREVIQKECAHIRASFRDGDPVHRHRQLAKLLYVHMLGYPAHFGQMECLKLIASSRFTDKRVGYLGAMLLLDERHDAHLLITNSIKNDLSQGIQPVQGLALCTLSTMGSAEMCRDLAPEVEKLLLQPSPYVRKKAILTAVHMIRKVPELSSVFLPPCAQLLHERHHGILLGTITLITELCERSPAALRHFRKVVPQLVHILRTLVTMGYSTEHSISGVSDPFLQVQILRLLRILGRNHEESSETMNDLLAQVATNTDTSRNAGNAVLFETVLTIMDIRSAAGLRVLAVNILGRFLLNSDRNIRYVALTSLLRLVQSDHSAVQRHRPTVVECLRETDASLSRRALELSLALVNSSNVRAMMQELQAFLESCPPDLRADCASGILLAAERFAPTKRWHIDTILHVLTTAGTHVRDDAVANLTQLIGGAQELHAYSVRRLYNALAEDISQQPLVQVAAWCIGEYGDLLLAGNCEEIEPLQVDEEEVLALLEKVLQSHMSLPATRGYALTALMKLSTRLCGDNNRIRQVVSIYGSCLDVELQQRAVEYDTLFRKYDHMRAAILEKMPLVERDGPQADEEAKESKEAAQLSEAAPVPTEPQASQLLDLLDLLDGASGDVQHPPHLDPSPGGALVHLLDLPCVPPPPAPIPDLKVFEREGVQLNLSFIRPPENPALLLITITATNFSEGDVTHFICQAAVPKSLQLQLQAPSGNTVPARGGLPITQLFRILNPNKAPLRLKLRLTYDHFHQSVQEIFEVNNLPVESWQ
UniProt O94919: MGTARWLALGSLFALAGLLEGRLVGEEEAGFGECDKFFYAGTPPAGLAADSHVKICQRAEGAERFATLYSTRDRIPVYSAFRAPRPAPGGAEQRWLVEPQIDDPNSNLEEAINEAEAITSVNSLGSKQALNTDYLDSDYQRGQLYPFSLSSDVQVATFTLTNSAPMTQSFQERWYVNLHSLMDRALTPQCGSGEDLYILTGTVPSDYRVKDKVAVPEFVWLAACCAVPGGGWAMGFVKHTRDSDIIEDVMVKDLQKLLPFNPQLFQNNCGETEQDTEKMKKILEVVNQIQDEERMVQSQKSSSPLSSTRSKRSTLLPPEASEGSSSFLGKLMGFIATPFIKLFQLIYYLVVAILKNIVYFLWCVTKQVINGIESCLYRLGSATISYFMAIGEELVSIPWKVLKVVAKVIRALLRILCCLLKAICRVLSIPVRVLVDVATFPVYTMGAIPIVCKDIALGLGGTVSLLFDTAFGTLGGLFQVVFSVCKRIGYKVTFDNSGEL
UniProt O94776: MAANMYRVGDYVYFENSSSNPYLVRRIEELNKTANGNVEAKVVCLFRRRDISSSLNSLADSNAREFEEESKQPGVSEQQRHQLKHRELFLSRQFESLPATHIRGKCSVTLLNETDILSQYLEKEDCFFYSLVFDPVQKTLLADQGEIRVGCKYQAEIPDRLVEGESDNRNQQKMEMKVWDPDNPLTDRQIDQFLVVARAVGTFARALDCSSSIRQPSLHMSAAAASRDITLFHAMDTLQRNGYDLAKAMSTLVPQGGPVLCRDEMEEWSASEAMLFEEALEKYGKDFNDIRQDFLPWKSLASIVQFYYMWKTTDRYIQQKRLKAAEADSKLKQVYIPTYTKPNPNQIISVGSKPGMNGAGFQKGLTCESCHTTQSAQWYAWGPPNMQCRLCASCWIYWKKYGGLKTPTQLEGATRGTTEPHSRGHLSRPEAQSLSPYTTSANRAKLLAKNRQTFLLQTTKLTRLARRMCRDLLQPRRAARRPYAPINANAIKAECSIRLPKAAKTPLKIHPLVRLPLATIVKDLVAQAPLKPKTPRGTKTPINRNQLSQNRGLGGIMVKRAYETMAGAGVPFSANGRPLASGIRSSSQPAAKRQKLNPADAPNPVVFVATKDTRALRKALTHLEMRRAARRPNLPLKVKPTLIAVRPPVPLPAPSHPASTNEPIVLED
UniProt O75063: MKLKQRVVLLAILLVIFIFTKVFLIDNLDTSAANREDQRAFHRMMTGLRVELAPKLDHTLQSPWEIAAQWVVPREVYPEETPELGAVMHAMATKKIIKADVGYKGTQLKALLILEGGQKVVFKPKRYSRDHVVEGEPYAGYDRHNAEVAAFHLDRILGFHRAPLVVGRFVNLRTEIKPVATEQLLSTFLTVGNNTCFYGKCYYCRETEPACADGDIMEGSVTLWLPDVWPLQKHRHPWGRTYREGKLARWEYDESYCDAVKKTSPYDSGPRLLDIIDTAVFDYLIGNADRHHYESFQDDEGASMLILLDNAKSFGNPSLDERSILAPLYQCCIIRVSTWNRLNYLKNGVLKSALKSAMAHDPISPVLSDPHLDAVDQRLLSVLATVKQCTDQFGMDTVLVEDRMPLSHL
UniProt O75607: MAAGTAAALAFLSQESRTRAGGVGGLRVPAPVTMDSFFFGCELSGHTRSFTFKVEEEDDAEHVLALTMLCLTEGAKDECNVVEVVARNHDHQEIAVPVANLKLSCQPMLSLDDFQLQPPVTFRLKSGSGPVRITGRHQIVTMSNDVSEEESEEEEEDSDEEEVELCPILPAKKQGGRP
UniProt O76094: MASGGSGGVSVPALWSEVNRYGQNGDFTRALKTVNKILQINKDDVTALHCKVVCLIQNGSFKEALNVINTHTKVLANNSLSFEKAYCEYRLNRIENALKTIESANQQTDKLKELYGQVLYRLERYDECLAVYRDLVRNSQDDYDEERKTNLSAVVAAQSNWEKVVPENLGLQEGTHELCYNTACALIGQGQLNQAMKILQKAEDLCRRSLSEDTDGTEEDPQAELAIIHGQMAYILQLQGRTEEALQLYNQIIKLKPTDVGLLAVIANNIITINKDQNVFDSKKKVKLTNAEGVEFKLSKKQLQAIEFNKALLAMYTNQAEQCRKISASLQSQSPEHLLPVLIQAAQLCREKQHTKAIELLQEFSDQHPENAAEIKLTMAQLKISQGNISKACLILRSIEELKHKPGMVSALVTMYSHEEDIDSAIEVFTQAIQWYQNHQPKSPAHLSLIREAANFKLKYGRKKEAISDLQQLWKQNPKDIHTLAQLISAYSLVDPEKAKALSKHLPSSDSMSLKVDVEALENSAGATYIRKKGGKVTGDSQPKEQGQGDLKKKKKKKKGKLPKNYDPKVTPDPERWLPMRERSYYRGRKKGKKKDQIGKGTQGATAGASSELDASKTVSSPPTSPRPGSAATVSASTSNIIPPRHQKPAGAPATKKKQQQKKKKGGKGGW
UniProt O95429: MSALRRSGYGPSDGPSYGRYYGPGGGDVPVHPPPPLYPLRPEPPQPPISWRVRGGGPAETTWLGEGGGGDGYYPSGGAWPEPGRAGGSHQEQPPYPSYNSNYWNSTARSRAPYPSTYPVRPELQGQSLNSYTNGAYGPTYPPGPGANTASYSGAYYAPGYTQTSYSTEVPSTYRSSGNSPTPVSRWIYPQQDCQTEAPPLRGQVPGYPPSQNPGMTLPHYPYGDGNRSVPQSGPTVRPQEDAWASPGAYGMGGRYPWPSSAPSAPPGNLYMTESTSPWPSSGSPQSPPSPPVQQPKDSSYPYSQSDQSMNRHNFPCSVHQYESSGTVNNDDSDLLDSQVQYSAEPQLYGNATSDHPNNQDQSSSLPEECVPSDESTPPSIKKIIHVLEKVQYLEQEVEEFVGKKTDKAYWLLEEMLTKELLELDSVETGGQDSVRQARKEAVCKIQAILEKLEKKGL
UniProt O75533, whole entry: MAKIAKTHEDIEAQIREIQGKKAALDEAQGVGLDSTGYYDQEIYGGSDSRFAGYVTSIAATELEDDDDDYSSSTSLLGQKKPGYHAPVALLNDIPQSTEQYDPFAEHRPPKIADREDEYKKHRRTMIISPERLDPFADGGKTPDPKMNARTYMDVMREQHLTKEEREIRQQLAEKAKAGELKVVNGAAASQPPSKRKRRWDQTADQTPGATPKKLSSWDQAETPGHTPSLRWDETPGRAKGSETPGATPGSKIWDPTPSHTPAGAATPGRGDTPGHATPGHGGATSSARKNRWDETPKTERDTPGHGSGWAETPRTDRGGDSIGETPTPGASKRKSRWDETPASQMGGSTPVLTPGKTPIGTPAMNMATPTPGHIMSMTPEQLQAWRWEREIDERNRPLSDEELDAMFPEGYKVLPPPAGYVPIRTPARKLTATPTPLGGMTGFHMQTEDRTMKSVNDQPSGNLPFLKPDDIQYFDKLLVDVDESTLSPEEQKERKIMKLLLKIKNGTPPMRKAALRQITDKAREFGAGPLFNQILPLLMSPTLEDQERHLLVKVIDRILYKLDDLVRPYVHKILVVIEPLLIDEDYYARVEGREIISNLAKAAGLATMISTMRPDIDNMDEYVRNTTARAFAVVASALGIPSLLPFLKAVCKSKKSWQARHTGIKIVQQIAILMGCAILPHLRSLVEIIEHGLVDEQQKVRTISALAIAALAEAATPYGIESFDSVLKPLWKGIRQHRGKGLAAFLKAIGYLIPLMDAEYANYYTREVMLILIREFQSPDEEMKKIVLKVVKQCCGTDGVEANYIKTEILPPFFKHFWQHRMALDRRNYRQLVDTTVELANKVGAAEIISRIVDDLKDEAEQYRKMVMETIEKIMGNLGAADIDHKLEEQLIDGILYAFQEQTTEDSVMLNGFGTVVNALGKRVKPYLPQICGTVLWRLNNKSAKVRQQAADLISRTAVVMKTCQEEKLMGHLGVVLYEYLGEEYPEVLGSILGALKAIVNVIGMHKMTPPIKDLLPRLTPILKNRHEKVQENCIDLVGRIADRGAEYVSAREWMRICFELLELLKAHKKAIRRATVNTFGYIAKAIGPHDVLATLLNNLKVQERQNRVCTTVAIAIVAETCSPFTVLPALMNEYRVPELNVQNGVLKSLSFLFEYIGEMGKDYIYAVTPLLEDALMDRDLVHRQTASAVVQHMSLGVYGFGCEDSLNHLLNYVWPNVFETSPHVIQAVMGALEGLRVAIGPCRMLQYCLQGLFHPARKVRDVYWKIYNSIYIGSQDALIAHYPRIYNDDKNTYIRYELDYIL
UniProt O95251, whole entry: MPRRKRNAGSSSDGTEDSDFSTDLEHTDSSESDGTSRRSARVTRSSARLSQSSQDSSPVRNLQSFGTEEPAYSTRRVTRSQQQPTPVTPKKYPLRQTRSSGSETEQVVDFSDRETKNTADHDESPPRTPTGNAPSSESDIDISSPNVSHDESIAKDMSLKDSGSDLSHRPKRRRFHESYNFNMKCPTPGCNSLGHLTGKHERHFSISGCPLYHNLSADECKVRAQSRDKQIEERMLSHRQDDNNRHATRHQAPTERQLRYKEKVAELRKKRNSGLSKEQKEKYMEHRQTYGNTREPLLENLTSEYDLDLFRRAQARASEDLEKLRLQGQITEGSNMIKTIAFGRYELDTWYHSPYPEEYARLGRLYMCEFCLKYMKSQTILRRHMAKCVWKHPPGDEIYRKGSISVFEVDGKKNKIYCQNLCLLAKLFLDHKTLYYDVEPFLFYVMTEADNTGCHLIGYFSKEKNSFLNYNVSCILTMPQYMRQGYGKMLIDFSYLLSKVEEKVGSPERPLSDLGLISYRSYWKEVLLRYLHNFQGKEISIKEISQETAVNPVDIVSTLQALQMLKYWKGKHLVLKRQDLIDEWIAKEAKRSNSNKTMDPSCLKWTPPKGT
UniProt O75940: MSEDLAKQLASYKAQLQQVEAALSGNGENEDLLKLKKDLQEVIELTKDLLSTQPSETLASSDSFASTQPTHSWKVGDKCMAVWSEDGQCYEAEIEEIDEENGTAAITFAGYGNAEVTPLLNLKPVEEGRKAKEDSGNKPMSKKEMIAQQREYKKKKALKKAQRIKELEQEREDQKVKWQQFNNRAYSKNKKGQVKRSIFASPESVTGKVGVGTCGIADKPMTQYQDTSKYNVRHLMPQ

The targets below were run with Nc1ncnc2c1ncn2[C@@H]1O[C@H](COP(=O)(O)OP(=O)(O)OP(=O)(O)O)[C@@H](O)[C@H]1O [adenosine triphosphate] (assay: NP40-soluble protein abundance relative to vehicle (solubility fold change) (ratio); higher = more soluble protein in presence of ATP). Details: concentration: 6mM.
In short: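 Eight concentrations, 0.1 to 10 mM, were tested on Jurkat crude lysate for 10 min at room temperature and then 3 min at 37 °C, in three independent experiments. The lysate was solubilised with 0.8% NP40 and benzonase, ultracentrifuged, and the supernatant TMT-labelled for LC-MS/MS. Each value is the fold change against the detergent-processed vehicle in its own replicate, from vsn-normalised intensities.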

In order of rising NP40-soluble protein abundance:
1. UniProt O75208 and related entries  0.881 ± 0.045
2. ZFAND5 (UniProt O76080)  0.933 ± 0.044
3. TIPRL (UniProt O75663)  0.936 ± 0.097
4. UniProt O60763 and related entries  0.937 ± 0.019
5. UniProt O95197 and related entries  0.947 ± 0.22
6. RAB3D (UniProt O95716)  0.947 ± 0.12
7. UniProt O75947  0.954 ± 0.14
8. UniProt O75340 and related entries  0.955 ± 0.13
9. GMDS (UniProt O60547)  0.956 ± 0.11
10. AP1G2 (UniProt O75843)  0.965 ± 0.057
11. ENDOD1 (UniProt O94919)  0.967 ± 0.028
12. CPD (UniProt O75976)  0.972 ± 0.031
13. KBTBD11 (UniProt O94819)  0.978 ± 0.07
14. MTA2 (UniProt O94776)  0.98 ± 0.086
15. UniProt O75600 and related entries  0.983 ± 0.075
16. UniProt O75150 and related entries  0.983 ± 0.013
17. NUP155 (UniProt O75694)  0.987 ± 0.12
18. RNASEH2A (UniProt O75792)  0.99 ± 0.044
19. FAM20B (UniProt O75063)  0.999 ± 0.074
20. SMC2 (UniProt O95347)  1.01 ± 0.05
21. UniProt O60879-2|O60879-3|C9J6U3 and related entries  1.013 ± 0.0068
22. UniProt O95613 and related entries  1.02 ± 0.031
23. ZBED4 (UniProt O75132)  1.02 ± 0.033
24. ZNF217 (UniProt O75362)  1.03 ± 0.079
25. NPM3 (UniProt O75607)  1.04 ± 0.037
26. UniProt O94822 and related entries  1.04 ± 0.033
27. SRP72 (UniProt O76094)  1.04 ± 0.038
28. UniProt O95429 and related entries  1.05 ± 0.26
29. UniProt O75398 and related entries  1.06 ± 0.098
30. PHF2 (UniProt O75151)  1.06 ± 0.16
31. UniProt O60524 and related entries  1.09 ± 0.066
32. DNAJC8 (UniProt O75937)  1.1 ± 0.095
33. SF3B1 (UniProt O75533)  1.17 ± 0.049
34. UniProt O95251 and related entries  1.2 ± 0.11
35. SMNDC1 (UniProt O75940)  1.22 ± 0.035
36. DKC1 (UniProt O60832)  1.24 ± 0.065
37. MYO1D (UniProt O94832)  1.32 ± 0.2

Same assay, conditions: concentration: 8mM

In order of rising NP40-soluble protein abundance:
1. ZFAND5 (UniProt O76080)  0.822 ± 0.036
2. UniProt O75208 and related entries  0.838 ± 0.022
3. UniProt O75947  0.889 ± 0.014
4. UniProt O60763 and related entries  0.9 ± 0.018
5. CPD (UniProt O75976)  0.935 ± 0.031
6. UniProt O95197 and related entries  0.94 ± 0.013
7. UniProt O75398 and related entries  0.942 ± 0.083
8. ENDOD1 (UniProt O94919)  0.944 ± 0.029
9. RAB3D (UniProt O95716)  0.949 ± 0.053
10. RNASEH2A (UniProt O75792)  0.951 ± 0.033
11. UniProt O75150 and related entries  0.96 ± 0.018
12. KBTBD11 (UniProt O94819)  0.966 ± 0.027
13. TIPRL (UniProt O75663)  0.979 ± 0.058
14. SMC2 (UniProt O95347)  0.98 ± 0.03
15. ZNF217 (UniProt O75362)  0.994 ± 0.053
16. UniProt O95429 and related entries  1 ± 0.26
17. UniProt O60879-2|O60879-3|C9J6U3 and related entries  1 ± 0.012
18. MTA2 (UniProt O94776)  1.01 ± 0.049
19. ZBED4 (UniProt O75132)  1.01 ± 0.046
20. UniProt O75600 and related entries  1.01 ± 0.057
21. AP1G2 (UniProt O75843)  1.02 ± 0.045
22. GMDS (UniProt O60547)  1.02 ± 0.089
23. UniProt O95613 and related entries  1.03 ± 0.011
24. FAM20B (UniProt O75063)  1.03 ± 0.016
25. UniProt O75340 and related entries  1.05 ± 0.038
26. NPM3 (UniProt O75607)  1.06 ± 0.028
27. SRP72 (UniProt O76094)  1.06 ± 0.05
28. PHF2 (UniProt O75151)  1.06 ± 0.13
29. UniProt O94822 and related entries  1.07 ± 0.058
30. NUP155 (UniProt O75694)  1.1 ± 0.091
31. DNAJC8 (UniProt O75937)  1.11 ± 0.046
32. UniProt O60524 and related entries  1.11 ± 0.064
33. SMNDC1 (UniProt O75940)  1.13 ± 0.05
34. MYO1D (UniProt O94832)  1.18 ± 0.18
35. UniProt O95251 and related entries  1.19 ± 0.089
36. SF3B1 (UniProt O75533)  1.2 ± 0.031
37. DKC1 (UniProt O60832)  1.43 ± 0.031

Same assay, conditions: concentration: 10mM

In order of falling NP40-soluble protein abundance:
1. DKC1 (UniProt O60832)  1.6 ± 0.1
2. UniProt O95251 and related entries  1.32 ± 0.16
3. MYO1D (UniProt O94832)  1.26 ± 0.081
4. SF3B1 (UniProt O75533)  1.19 ± 0.043
5. UniProt O60524 and related entries  1.18 ± 0.036
6. SMNDC1 (UniProt O75940)  1.17 ± 0.042
7. UniProt O94822 and related entries  1.09 ± 0.069
8. NUP155 (UniProt O75694)  1.09 ± 0.059
9. NPM3 (UniProt O75607)  1.08 ± 0.035
10. PHF2 (UniProt O75151)  1.06 ± 0.17
11. SRP72 (UniProt O76094)  1.05 ± 0.04
12. UniProt O75340 and related entries  1.04 ± 0.036
13. ZNF217 (UniProt O75362)  1.03 ± 0.043
14. FAM20B (UniProt O75063)  1.03 ± 0.018
15. UniProt O95613 and related entries  1.01 ± 0.078
16. UniProt O75398 and related entries  1 ± 0.08
17. ZBED4 (UniProt O75132)  1 ± 0.04
18. MTA2 (UniProt O94776)  0.997 ± 0.064
19. UniProt O60879-2|O60879-3|C9J6U3 and related entries  0.9974 ± 0.0084
20. GMDS (UniProt O60547)  0.985 ± 0.052
21. AP1G2 (UniProt O75843)  0.976 ± 0.026
22. UniProt O75600 and related entries  0.976 ± 0.1
23. SMC2 (UniProt O95347)  0.972 ± 0.032
24. UniProt O75150 and related entries  0.972 ± 0.022
25. KBTBD11 (UniProt O94819)  0.969 ± 0.039
26. RAB3D (UniProt O95716)  0.963 ± 0.07
27. ENDOD1 (UniProt O94919)  0.96 ± 0.026
28. CPD (UniProt O75976)  0.955 ± 0.026
29. DNAJC8 (UniProt O75937)  0.949 ± 0.14
30. UniProt O95429 and related entries  0.944 ± 0.2
31. RNASEH2A (UniProt O75792)  0.922 ± 0.049
32. TIPRL (UniProt O75663)  0.915 ± 0.037
33. UniProt O60763 and related entries  0.907 ± 0.014
34. UniProt O95197 and related entries  0.893 ± 0.047
35. ZFAND5 (UniProt O76080)  0.846 ± 0.084
36. UniProt O75947  0.839 ± 0.061
37. UniProt O75208 and related entries  0.813 ± 0.13
